These are yes or no findings as the source states them, for the method shown. In cells and extracts the contact can be indirect. Some results given as binding are weak or reduced against the parent protein; the word gives no strength. For some of these results: Tags and fused reporters may be left off the sequences shown.
How the values were obtained:
[1] = biological target: Flag-TALDO1 (transaldolase 1), wild type (UniProt P37837); experiment: co-IP; 293T cells transfected with both tagged proteins for 48 h; lysate in IP buffer with protease inhibitors, 2 μg antibody overnight at 4 °C, magnetic beads, western blot
[2] = biological target: Flag-TALDO1 (transaldolase 1), wild type, in NPC cells (UniProt P37837); experiment: co-IP; NPC cells transfected with Flag-TALDO1; exogenous Flag-TALDO1 and endogenous HDAC6; IP and western blot
[3] = biological target: Flag-TALDO1 K7R (mimicking deacetylation) (UniProt P37837); experiment: co-IP; 293T cells transfected with both tagged proteins for 48 h; lysate in IP buffer with protease inhibitors, 2 μg antibody overnight at 4 °C, magnetic beads, western blot
[4] = biological target: TALDO1 (transaldolase 1), endogenous (human (endogenous; cell line not named, all cell lines of the paper are human)) (UniProt P37837); experiment: co-IP; endogenous proteins, IP and western blot; cell line not named

Amino acid sequences for entries named in this document (tags omitted).
UniProt Q09472: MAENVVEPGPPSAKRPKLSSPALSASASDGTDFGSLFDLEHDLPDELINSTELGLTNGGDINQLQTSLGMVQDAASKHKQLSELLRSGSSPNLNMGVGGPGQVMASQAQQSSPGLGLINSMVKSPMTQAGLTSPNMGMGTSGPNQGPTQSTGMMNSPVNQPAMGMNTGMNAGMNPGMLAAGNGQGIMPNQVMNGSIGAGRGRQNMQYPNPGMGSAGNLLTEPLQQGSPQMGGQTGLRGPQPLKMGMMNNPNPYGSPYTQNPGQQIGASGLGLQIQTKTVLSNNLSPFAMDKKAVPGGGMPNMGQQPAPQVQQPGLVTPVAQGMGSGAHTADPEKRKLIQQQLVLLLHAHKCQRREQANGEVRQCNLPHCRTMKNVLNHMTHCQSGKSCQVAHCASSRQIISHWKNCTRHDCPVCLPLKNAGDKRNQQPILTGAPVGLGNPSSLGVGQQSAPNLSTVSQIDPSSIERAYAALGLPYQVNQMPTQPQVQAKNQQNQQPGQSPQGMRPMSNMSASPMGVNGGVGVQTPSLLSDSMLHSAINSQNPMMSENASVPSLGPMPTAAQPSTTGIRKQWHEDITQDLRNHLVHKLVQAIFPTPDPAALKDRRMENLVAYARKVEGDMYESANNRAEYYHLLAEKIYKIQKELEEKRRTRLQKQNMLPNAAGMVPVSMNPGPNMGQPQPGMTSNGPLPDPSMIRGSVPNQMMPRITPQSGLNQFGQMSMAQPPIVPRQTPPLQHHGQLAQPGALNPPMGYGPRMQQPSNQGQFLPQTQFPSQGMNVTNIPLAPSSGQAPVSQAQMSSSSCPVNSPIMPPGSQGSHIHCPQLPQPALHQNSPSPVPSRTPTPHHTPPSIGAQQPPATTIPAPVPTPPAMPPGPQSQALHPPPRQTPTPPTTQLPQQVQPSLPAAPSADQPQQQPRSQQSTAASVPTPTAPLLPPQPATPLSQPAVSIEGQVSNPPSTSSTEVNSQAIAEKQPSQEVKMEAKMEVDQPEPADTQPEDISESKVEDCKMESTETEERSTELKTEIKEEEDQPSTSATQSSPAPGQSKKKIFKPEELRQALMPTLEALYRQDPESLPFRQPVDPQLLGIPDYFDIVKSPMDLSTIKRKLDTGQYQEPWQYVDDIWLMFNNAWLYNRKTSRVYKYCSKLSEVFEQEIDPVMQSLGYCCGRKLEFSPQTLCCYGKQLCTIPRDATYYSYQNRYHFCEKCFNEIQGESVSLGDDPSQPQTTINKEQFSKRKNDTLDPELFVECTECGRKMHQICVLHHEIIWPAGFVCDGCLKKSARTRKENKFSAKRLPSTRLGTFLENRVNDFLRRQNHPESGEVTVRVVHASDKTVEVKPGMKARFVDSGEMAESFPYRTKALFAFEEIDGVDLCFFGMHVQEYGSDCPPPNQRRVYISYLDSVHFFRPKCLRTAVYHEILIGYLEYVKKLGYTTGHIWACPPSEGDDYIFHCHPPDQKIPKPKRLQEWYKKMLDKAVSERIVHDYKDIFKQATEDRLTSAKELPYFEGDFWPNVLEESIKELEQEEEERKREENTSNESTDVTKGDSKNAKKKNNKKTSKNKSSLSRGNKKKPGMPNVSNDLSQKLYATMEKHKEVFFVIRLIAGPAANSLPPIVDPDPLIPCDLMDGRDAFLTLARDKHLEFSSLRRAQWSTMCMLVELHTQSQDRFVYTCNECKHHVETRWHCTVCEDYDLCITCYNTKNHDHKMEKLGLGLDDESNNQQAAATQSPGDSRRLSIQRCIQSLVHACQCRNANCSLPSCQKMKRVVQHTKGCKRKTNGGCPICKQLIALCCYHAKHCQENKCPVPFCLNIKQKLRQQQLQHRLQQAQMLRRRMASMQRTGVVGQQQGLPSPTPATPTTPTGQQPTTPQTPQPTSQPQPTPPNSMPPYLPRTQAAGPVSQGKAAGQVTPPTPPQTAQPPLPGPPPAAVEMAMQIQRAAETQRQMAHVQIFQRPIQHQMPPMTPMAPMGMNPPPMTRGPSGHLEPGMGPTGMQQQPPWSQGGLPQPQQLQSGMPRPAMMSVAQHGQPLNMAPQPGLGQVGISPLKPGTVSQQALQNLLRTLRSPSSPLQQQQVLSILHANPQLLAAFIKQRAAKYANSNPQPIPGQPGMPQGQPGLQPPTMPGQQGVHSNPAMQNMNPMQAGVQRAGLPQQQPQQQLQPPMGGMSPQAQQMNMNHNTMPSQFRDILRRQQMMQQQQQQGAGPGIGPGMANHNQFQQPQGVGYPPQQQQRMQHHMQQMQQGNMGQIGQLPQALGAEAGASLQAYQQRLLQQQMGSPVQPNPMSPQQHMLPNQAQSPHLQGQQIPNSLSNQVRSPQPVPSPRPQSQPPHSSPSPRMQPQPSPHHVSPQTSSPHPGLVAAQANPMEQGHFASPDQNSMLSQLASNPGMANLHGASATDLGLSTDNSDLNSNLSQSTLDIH
UniProt Q9UBN7: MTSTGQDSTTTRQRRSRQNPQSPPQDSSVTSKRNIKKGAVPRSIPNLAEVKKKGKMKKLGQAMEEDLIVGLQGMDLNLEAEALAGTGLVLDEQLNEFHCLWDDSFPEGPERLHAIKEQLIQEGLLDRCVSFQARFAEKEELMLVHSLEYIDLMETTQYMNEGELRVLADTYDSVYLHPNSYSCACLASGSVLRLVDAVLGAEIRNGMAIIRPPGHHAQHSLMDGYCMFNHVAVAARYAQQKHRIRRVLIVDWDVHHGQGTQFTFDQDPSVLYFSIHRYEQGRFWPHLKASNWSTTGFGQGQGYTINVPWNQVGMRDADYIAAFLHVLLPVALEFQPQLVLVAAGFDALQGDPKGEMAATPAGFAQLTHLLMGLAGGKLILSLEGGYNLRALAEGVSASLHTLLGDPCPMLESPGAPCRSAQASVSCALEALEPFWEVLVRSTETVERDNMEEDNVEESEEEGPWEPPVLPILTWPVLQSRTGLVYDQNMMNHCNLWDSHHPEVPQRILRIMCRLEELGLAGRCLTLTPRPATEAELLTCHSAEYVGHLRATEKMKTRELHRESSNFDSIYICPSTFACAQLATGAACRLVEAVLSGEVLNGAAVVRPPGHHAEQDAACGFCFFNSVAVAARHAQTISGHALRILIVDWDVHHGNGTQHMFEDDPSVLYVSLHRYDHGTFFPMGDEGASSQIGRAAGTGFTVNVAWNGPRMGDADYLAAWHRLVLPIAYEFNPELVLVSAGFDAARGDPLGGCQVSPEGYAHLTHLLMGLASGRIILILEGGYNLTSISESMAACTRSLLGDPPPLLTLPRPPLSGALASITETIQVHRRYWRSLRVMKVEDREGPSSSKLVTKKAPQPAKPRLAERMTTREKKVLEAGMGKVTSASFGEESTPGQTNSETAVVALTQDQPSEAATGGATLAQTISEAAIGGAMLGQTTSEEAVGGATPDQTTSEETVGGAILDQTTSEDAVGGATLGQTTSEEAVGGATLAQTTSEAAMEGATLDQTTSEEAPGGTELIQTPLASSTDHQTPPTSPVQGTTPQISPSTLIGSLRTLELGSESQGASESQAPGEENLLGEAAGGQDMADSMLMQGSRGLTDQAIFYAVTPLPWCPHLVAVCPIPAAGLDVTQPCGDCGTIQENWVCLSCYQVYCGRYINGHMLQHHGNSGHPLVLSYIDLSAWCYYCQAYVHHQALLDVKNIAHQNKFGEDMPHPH
UniProt Q9HCE7: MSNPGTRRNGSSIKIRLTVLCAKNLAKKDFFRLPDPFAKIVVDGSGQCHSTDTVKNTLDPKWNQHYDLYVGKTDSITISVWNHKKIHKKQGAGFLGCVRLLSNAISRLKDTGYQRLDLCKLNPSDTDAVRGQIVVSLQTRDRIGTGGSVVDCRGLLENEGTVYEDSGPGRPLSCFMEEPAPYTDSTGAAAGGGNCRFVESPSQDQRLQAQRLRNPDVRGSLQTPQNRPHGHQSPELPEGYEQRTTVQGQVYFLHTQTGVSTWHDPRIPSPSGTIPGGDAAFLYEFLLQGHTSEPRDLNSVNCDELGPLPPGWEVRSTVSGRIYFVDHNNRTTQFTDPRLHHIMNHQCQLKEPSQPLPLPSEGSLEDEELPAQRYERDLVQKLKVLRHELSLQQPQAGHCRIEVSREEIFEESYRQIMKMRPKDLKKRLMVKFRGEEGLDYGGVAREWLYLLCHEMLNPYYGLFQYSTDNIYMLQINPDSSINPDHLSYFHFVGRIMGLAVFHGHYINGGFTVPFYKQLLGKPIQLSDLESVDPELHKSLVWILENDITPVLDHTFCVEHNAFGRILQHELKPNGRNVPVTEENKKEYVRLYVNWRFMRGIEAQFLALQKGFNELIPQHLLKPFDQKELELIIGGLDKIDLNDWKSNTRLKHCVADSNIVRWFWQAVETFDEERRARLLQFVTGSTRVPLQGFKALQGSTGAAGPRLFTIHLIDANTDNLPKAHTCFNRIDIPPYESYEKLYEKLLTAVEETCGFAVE
UniProt Q9UQL6: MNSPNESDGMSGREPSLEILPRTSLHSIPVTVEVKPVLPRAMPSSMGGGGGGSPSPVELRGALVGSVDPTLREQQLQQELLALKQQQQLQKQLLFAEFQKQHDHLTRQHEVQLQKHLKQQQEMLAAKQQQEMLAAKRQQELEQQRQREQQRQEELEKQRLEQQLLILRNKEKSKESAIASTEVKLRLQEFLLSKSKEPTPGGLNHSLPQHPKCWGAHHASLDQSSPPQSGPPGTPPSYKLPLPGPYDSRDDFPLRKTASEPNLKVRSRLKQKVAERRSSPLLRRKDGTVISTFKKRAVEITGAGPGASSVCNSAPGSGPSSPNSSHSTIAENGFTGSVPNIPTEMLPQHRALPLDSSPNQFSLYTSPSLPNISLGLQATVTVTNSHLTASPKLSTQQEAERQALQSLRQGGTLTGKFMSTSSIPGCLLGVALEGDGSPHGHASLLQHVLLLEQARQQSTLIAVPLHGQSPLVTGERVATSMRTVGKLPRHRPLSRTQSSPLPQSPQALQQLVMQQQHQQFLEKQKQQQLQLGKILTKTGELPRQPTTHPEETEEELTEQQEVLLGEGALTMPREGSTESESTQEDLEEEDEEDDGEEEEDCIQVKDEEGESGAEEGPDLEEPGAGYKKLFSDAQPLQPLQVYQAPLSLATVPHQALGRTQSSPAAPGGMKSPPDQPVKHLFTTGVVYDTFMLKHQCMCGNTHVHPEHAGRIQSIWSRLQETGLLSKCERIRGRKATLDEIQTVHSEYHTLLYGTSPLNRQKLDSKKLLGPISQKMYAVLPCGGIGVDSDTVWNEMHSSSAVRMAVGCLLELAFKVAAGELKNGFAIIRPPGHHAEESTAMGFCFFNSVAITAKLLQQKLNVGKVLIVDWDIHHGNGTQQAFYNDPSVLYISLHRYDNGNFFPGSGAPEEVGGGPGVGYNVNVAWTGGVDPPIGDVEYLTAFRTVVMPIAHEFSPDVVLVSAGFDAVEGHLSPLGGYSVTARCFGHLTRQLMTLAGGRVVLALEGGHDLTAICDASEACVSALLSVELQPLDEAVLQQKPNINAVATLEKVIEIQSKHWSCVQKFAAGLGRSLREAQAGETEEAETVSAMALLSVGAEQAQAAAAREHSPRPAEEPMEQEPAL

Substance | binding [1] | further results
Myc-p300 (from UniProt Q09472 1-2414) (enzyme) | binds | 
HDAC6, endogenous in NPC cells (from UniProt Q9UBN7 1-1215) (enzyme) |  | binding [2]: binds
His-SMURF1 (from UniProt Q9HCE7 1-757) (enzyme) | binds | binding [3]: binds
His-tagged HDAC5 (from UniProt Q9UQL6 1-1122) (enzyme) | binds | 
p300, endogenous (from UniProt Q09472 1-2414) (enzyme) |  | binding [4]: binds
His-tagged HDAC6 (from UniProt Q9UBN7 1-1215) (enzyme) | binds | 

From paper PMC12540763
